PubChem BioAssay AID1671195 | Yale University – 2021

Assay: 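Regulators of LDL receptor activity judged by labelled LDL uptake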 (primary screen)
System: human Huh7 hepatoma cells
Reagent: siRNA pool against human genes, 18 nM
Timing: about 2 to 2.5 days of knockdown, then 8 h LDL uptake
Challenge: DiI-labelled LDL at 30 µg/ml for 8 h, in lipoprotein-deficient serum medium
Measured: 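Per-cell DiI-LDL intensity by automated imaging; well means scaled to the plate median and given as a robust z-score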
Direction: robust z-score: higher = more LDL uptake after knockdown
Rule for the call: 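Active when two or more replicates show a robust z-score above 2 or below -2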
The deposit covers about 22,000 reagents; shown is a part drawn at random. Of all reagents, about 1,510 (6.9%) were called active. 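Active includes knockdowns raising or lowering LDL uptake; positive z-scores mean more uptake, negative mean less.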

no.	gene symbol	robust z-score, replicate 1	robust z-score, replicate 2	robust z-score, replicate 3	Outcome
1	SREK1IP1	0.895	1.03	1.19	inactive
2	SLC12A6	2.05	1.72	2.2	active
3	ERLEC1	0.704	-0.178	-1.5	inactive
4	USP11	1.78	1.73	2	inactive
5	MEX3A	2.47	0.762	1.32	inactive
6	SHFL	0.00278	0.543	-0.189	inactive
7	DCAF5	-1.06	-0.507	-1.21	inactive
8	RBM18	0.795	-0.909	0.0714	inactive
9	LOC442225	2.97	2.57	2.28	active
10	MICALL1	-0.0853	0.251	0.555	inactive
11	LOC283780 (retired record)	1.03	0.796	0.541	inactive
12	WNK4	-0.304	-0.352	-0.31	inactive
13	MICU3	-0.456	-0.675	-0.584	inactive
14	ATP6V1C2	0.387	0.18	0.308	inactive
15	FAM13B	1.73	2.22	1.12	inactive
16	KDELR1	0.184	-0.334	-0.0586	inactive
17	POU5F2	0.796	-0.277	1.19	inactive
18	SF3A2	1.08	3.29	4.97	active
19	SLC36A3	-0.136	-0.164	-0.426	inactive
20	PABPN1L	1.04	0.868	1.47	inactive
21	RCC1	0.613	0.969	0.925	inactive
22	LMX1B	-1.56	-1.58	-1.54	inactive
23	G3BP2	0.917	1.44	1.68	inactive
24	RIMS2	0.208	0.268	0.105	inactive
25	CWC27	0.279	0.793	0.0881	inactive
26	TMEM97	-0.85	-0.203	-1.71	inactive
27	MSH6	-1.27	-1.42	-0.967	inactive
28	NBPF8	0.0992	-0.168	-0.447	inactive
29	ART4	1.35	0.96	1.09	inactive
30	ATP11B	0.105	-0.58	0.0938	inactive
31	SHISA8	-0.0454	-0.026	0.237	inactive
32	CA13	-0.454	-0.611	-1.09	inactive
33	AHSA2P	0.812	0.672	1.63	inactive
34	WDR83	0.712	0.524	0.875	inactive
35	DNAJA3	-0.541	-0.279	-0.314	inactive
36	ZNF814	-1.04	-1.22	-1.09	inactive
37	LPCAT1	-0.809	-1.12	-1.12	inactive
38	HDDC2	2.53	2.57	-1.15	active
39	SLC39A12	-0.0785	-0.296	0.162	inactive
40	AK2	1.16	0.445	0.168	inactive
41	ZNF749	-0.553	-0.682	-0.666	inactive
42	EEF1AKMT2	-0.243	0.0783	0.0544	inactive
43	RUFY2	-1.17	-0.736	-1.36	inactive
44	NMNAT1	-0.941	-1.61	-1.45	inactive
45	SHARPIN	-0.813	-0.763	-0.0692	inactive
46	SLC22A10	0.709	0.47	0.71	inactive
47	POLR3E	1.31	2.14	1.47	inactive
48	LGALS14	1.31	1.27	1.29	inactive
49	NETO2	0.837	0.235	-0.109	inactive
50	LSS	-1.37	-1.13	-1.54	inactive
51	TAF2	1.61	-0.295	0.988	inactive
52	RCC2	0.386	0.0641	-1.2	inactive
53	ACNATP	-0.315	-0.509	-1.39	inactive
54	CHD4	1.26	0.893	0.759	inactive
55	CPSF7	-0.185	-0.39	-0.393	inactive
56	LOC387781 (retired record)	2.09	1.49	1.5	inactive
57	GPR42	-0.0798	0.0998	0.121	inactive
58	LOC390529 (retired record)	-1.42	-1.63	-1.65	inactive
59	CNGA3	-1.29	-1.66	-1.05	inactive
60	CFAP52	1.46	1.06	0.729	inactive
61	PCGF5	-1.22	-1.19	-1.24	inactive
62	ZSCAN1	4.89	4.23	4.38	active
63	LOC440753 (retired record)	0.24	0.0894	0.481	inactive
64	LOC389953 (retired record)	-0.126	0.348	0.194	inactive
65	RAB20	3.06	0.146	0.916	inactive
66	GPS2	2.1	-1.91	1.63	inactive
67	LOC441378 (retired record)	1.39	1.11	1.52	inactive
68	LY6K	-1.99	-0.0703	-1.28	inactive
69	MFSD2A	0.886	1.39	1.09	inactive
70	AFF3	-0.2	0.00893	-0.0419	inactive
71	TEDC2	-1.3	-1.7	-1.56	inactive
72	PGP	0.214	-0.106	0.232	inactive
73	LOC391258 (retired record)	3.9	3.43	3.22	active
74	BEND7	-0.29	-0.535	-0.289	inactive
75	HNRNPA1P56	0.665	0.0136	-0.122	inactive
76	FBXO40	1.38	2.03	1.34	inactive
77	CCDC38	0.44	0.015	-0.743	inactive
78	GALNT7	-2.02	-0.177	-2.03	active
79	FAM3C	0.454	-0.00111	1.45	inactive
80	ZNF664	-1.35	-1.63	-0.8	inactive
81	SSTR5	0.11	-0.477	0.0326	inactive
82	KCTD13	-1.61	-1.42	-0.964	inactive
83	OR4C13	-0.0893	-0.0728	-0.123	inactive
84	WNT5B	-0.924	-0.322	-0.369	inactive
85	RPS24	-1.3	-0.627	-1.36	inactive
86	PCSK5	-1.29	-0.0181	-0.675	inactive
87	SORD	0.0394	-0.954	-0.237	inactive

Already shown: entries from further up.
no.	gene symbol	robust z-score, replicate 1	robust z-score, replicate 2	robust z-score, replicate 3	Outcome
5	MEX3A	2.47	0.762	1.32	inactive
6	SHFL	0.00278	0.543	-0.189	inactive
7	DCAF5	-1.06	-0.507	-1.21	inactive
8	RBM18	0.795	-0.909	0.0714	inactive
9	LOC442225	2.97	2.57	2.28	active
10	MICALL1	-0.0853	0.251	0.555	inactive
11	LOC283780 (retired record)	1.03	0.796	0.541	inactive
12	WNK4	-0.304	-0.352	-0.31	inactive
13	MICU3	-0.456	-0.675	-0.584	inactive
